Tested on: Intestinal Phosphate Absorption
Assay: Fecal calcium and phosphorus measurements, binder in purified diet
Format: in vivo, rats
Conditions: 48 h fecal collection, mean ± SEM, control 11.23 ± 0.84
Text: Animals. Male Sprague-Dawley rats (Harlan Sprague-Dawley, Madison, Wis.) weighing approximately 120 grams were used in all experiments.
In experiments to measure fecal calcium and phosphorus levels, rats were fed purified diet described previously for 9 days. (Suda T et al., Biological activity of 25-hydroxyergocalciferol in rats, J Nutr 1970, 100:1049-1052). This diet was mixed with egg white protein (Harlan Teklad, Madison, Wis.) and contained 0.20% inorganic phosphorus and 0.47% calcium. The purified diet was supplemented with 100 μL soybean oil (Wesson oil, ConAgra Foods, Irvine, Calif.) containing 500 μg α-tocopherol, 60 μg menadione, 40 μg β-carotene, and 1.875 μg cholecalciferol three times each week.
Fecal calcium and phosphorus measurements. Rats were fed the purified diet described above or the same diet with 1.2% calcium, 0.15% Renagel®, or 0.15% DAB-4, DAB-8, or DAB-16 for 7 days. Rats were then moved to metabolic cages and fecal matter was collected for 48 hours. Fecal samples were frozen, lyophilized, and heated to over 600° C. overnight in a muffle oven. Remaining ash was then dissolved overnight in 25 mL 6 N HCl. The calcium concentration of the acid was determined by flame atomic absorption spectroscopy (Model 3110, Perkin Elmer, Norwalk, Conn.) using an aliquot of the dissolved ash diluted 1:40 with 1 g/L LaCl3. The phosphorus concentration of an aliquot of the dissolved ash was determined by a colorimetric assay described previously. (Itaya K et al., A new micromethod for the colorimetric determination of inorganic phosphate, Clin Chim Acta 1966, 14:361-366).
Statistical analysis. Data are presented as means±standard error of the means (SEM). Treatment groups were compared by a fully factorial analysis of variance (ANOVA) and means were subjected to Tukey, Scheffe, and Fisher's Least-Significant-Difference (LSD) tests (Systat 5.2.1, Systat Software, Inc., Point Richmond, Calif.). Differences were considered significant if at least two of the tests detected significance with a p-value <0.05, unless specified otherwise.

Row | Compound | mg Ca per gram feces (0.15% of diet for 7 days) [mg Ca per gram feces] | mg Ca per gram feces (1.20% Ca diet for 7 days) [mg Ca per gram feces]
1 | Cl.Cl.Cl.Cl.Cl.Cl.NCCCN(CCCN)CCCCN(CCCN)CCCN [DAB-4, polypropylenimine tetraamine Dendrimer perhydrochloride] | 14.28 ± 2.01 | 
2 | CC(=O)[O-].CC(=O)[O-].[Ca+2] [calcium, Calcium acetate, reference compound] |  | 80.71 ± 4.60
3 | Polypropylenimine hexadecaamine Dendrimer perhydrochloride [DAB-16] | 15.82 ± 1.52 | 
4 | polypropylenimine octaamine Dendrimer perhydrochloride [DAB-8] | 16.06 ± 1.44 | 
